From publication PMC11699347, “Heme regulates protein interactions and phosphorylation of BACH2 intrinsically disordered region in humoral response” (iScience, 2024) come the findings set out here.

The chains behind the UniProt entries cited, without tags or fusion partners. Residues count along the entry.
UniProt P97303, residues 331-520: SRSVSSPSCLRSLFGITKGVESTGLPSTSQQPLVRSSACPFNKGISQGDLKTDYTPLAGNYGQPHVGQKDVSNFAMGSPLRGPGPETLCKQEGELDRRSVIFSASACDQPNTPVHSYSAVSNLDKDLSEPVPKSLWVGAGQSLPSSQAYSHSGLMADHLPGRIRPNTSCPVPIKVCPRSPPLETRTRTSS

The target in the assay is FLAG-HA-BACH2-IDR (mouse) (UniProt P97303). Description: affinity purification with mass spectrometry; ReCLIP: in-cell cross-linking (DSP, DTME) of BAL17 cells stably expressing FLAG-HA-BACH2-IDR, RIPA lysate, FLAG-M2 agarose, FLAG peptide elution, cross-links reversed with DTT, LC-MS/MS; compared with mock-infected cells.

No constants are given. Whether binding was seen depends on the method and setting. In cells and extracts the contact can be indirect. These calls come from enrichment with a bait or labelling near it, and not all partners need be listed.

B1: Serine/threonine-protein phosphatase 4 regulatory subunit 1 (protein, UniProt Q8K2V1 1-951)
chain: MADLSLLQEDLPEDADGLDVDDYSSESDVIIIPSALDFVSQDEMLTPLGRLDKYAASENVFNRQMVARSLLDTLREVCDDERDCIAVLERISRLADDSEPTVRAELMEQVPHIALFCQENRPSIPYAFSKYLLPIVVRYLADQNNQVRKTSQAALLALLEQELIERFDVETKVCPVLIDLTAPDSNDDVKTEAVAIMCKMAPMVGKDITERLILPRFCEMCCDCRMFHVRKVCAANFGDICSVVGQQATEEMLLPRFFQLCSDNVWGVRKACAECFMAVSCATCQEIRRTKLSALFINLISDPSRWVRQAAFQSLGPFISTFANPSSSGQCFKDESKSSEDSSAEDKDRMRDNDVVEEEHRRPEDAPSDLSAPHSSARLESLEGCAAKTPGHSAGDVPAPVDSSLLCTLSSESPQEAASNDENGRKPDTNSKSASRPDAGTSSPEATPLDQDMFNSFHFWRTPLPKIDLDKELQQDPEERLSPERTGDVPAAPLPGPPNITMATRKELEEMIENLEPHMDDPDVKAQVDVLSAALRASSLDAHEETGGVEQRSELQDEVCVSELPDCNISHDTCVPLISAAEENAEATPDYVHGGADVSPGDGFSPDEDRRPKVQDVVPQALLDQYLSMTDPSRAQTVDTEIAKHCAYSLPGVALTLGRQNWHCLRETYETLASDMQWKVRRTLAFSIHELAVILGDQLTAADLVPIFNGFLKDLDEVRIGVLKHLHDFLKLLHIDKRREYLYQLQEFLVTDNSRNWRFRAELAEQLILLLELYSPRDVYDYLRPIALNLCADKVSSVRWISYKLVSEMVKKLHTATPPTFGVDLINELVENFGRCPKWSGRQAFVFVCQTVIEDDCLPMDQFAVHLMPHLLTLANDRVPNVRVLLAKTLRQTLLEKEYFLASASCHQEAVEQTIMALQMDRDSDVKYFASIHPSSTKLSEDAMSTASSTY
Take B1: the binding entry is “binds”.

B2: Chromosome-associated kinesin KIF4 (protein, UniProt P33174 1-1231)
chain: MKEEVKGIPVRVALRCRPLVSKEIKEGCQTCLSFVPGEPQVVVGNDKSFTYDFVFDPSTEQEEVFNTAVAPLIKGVFKGYNATVLAYGQTGSGKTYSMGGAYTAEQEHDSAIGVIPRVIQLLFKEINKKSDFEFTLKVSYLEIYNEEILDLLCSSREKATQINIREDPKEGIKIVGLTEKTVLVASDTVSCLEQGNNSRTVASTAMNSQSSRSHAIFTISIEQRKKNDKNSSFRSKLHLVDLAGSERQKKTKAEGDRLREGININRGLLCLGNVISALGDDKKGNFVPYRDSKLTRLLQDSLGGNSHTLMIACVSPADSNLEETLNTLRYADRARKIKNKPIINIDPQAAELNHLKQQVQQLQILLLQAHGGTLPGDINVEPSENLQSLMEKNQSLVEENEKLSRGLSEAAGQTAQMLERIILTEQANEKMNAKLEELRRHAACKVDLQKLVETLEDQELKENIEIICNLQQVIAQLSDEAAACMTATIDTAGEADTQVQSSPDTSRSSDVFSTQHALRQAQMSKELIELNKALALKEALAKKMTQNDNQLQPIQFQYQDNIKNLESEVLSLQREKEELVLELQTAKKDANQAKLSERRRKRLQELEGQIADLKKKLQEQSKLLKLKESTEHTVSKLNQEIRMMKNQRVQLMRQMKEDAEKFRQWKQQKDKEVIQLKERDRKRQYELLKLERNFQKQSNVLRRKTEEAAAANKRLKDALQKQKEVAEKRKETQSRGMESTAARMKNWLGNEIEVMVSTEEAKRHLNGLLEERKILAQDVAQLKEKRESGENPPLKLRRRTFSYDEIHGQDSGAEDSIAKQIESLETELELRSAQIADLQQKLLDAESEDRPKQRWESIATILEAKCAIKYLVGELVSSKILVSKLESSLNQSKASCIDVQKMLFEEQNHFAKIETELKEELVKVEQQHQEKVLYLLSQLQQSQMTEKQLEESVSEKEQQLLSTLKCQEEELRKMQEVCEQNQQLLQENSAIKQKLTLLQVASKQKPHLTRNIFQSPDSSFEYIPPKPKPCRIKEKCLEQSFAVEGLQYYSEPSVAEQDNEDSDDHADEEWIPTKLVKVSKKSIQGCSCKGWCGNKQCGCRKQKSDCNVSCSCDPTKCRNRHQNQDNSDAIELNQDSENSFKLEDPTEVTSGLSFFHPICATPSSKILKEMCDADQVQLKQPVFVSSSDHPELKSIASESQENKAIGKKKKRALASNTSFFSGCSPIQEESH
Consider B2, for which the binding result is given as “binds”.

B3: Ubiquitin carboxyl-terminal hydrolase 19 (protein, UniProt Q3UJD6 1-1360)
chain: MSAGASATGPRRGPPGLEEATSKKKQKDRANLESKDGDARRVSLPRKEPTKDELLLDWRQSADEVIVKLRVGTGPVRLEDVDAAFTDTDCVVRLPDGRQWGGVFFAEIQSSCTKVQARKGGLLQLVLPKKVPLLTWPSLLKPLGTQELVPGLQCQENGQELSPIALEPGSEPRRAKQEARNQKRAQGRGEVGSGAGPGTQAGPSAKRAVHLRRGPEGEGSMDGPGPQGDAPSFLSDSATQVEAEEKLCAPPMNTQTSLLSSEKSLALLTVEKTVSPRNDPVAPVMVQDRDPEPEQEDQVKEEMALGADPTALVEEPESMVNLAFVKNDSYEKGPDSVVVHVYVKEIRRDSSRVLFREQDFTLIFQTRDGNFLRLHPGCGPHTIFRWQVKLRNLIEPEQCTFCFTASRIDICLRKRQSQRWGGLEAPATRGAVGGAKVAVPTGPTPLDSTPPGGGPHPLTGQEEARAVEKEKPKARSEDSGLDGVVARTPLEHVAPKPDPHLASPKPTCMVPPMPHSPVSGDSVEEDEEEEKKVCLPGFTGLVNLGNTCFMNSVIQSLSNTRELRDFFHDRSFEAEINYNNPLGTGGRLAIGFAVLLRALWKGTHQAFQPSKLKAIVASKASQFTGYAQHDAQEFMAFLLDGLHEDLNRIQNKPYTETVDSDGRPDEVVAEEAWQRHKMRNDSFIVDLFQGQYKSKLVCPVCAKVSITFDPFLYLPVPLPQKQKVLPIFYFAREPHSKPIKFLVSVSKENSSASEVLDSLSQSVHVKPENLRLAEVIKNRFHRVFLPSHSLDAVSPTDVLLCFELLSPELAKERVVVLEVQQRPQVPSIPISKCAACQRKQQSEEEKLKRCTRCYRVGYCNQFCQKTHWPDHKGLCRPENIGYPFLVSVPASRLTYARLAQLLEGYARYSVSVFQPPFQPGRMALESQSPGCTTLLSTSSLEAGDSEREPIQPSELQLVTPVAEGDTGAHRVWPPADRGPVPSTSGLSSEMLASGPIEGCPLLAGERVSRPEAAVPGYQHSSESVNTHTPQFFIYKIDASNREQRLEDKGETPLELGDDCSLALVWRNNERLQEFVLVASKELECAEDPGSAGEAARAGHFTLDQCLNLFTRPEVLAPEEAWYCPQCKQHREASKQLLLWRLPNVLIVQLKRFSFRSFIWRDKINDLVEFPVRNLDLSKFCIGQKEEQLPSYDLYAVINHYGGMIGGHYTACARLPNDRSSQRSDVGWRLFDDSTVTTVDESQVVTRYAYVLFYRRRNSPVERPPRASHSEHHPDLGPAAEAAASQASRIWQELEAEEEMVPEGPGPLGPWGPQDWVGPPPRGPTTPDEGCLRYFVLGTVAALVALVLNVFYPLVSQSRWR
In the case of B3, the binding result is recorded as “binds”.

B4: Cleavage stimulation factor subunit 1 (protein, UniProt Q99LC2 1-431)
chain: MYRTKVGLKDRQQLYKLIISQLLYDGYISIANGLINEIKPQSVCAPSEQLLHLIKLGMENDDTAVQYAIGRSDTVAPGTGIDLEFDADVQTMSPEASEYETCYVTSHKGPCRVATYSRDGQLIATGSADASIKILDTERMLAKSAMPIEVMMNETAQQNMENHPVIRTLYDHVDEVTCLAFHPTEQILASGSRDYTLKLFDYSKPSAKRAFKYIQEAEMLRSISFHPSGDFILVGTQHPTLRLYDINTFQCFVSCNPQDQHTDAICSVNYNPSANMYVTGSKDGCIKLWDGVSNRCITTFEKAHDGAEVCSAIFSKNSKYILSSGKDSVAKLWEISTGRTLVRYTGAGLSGRQVHRTQAVFNHTEDYILLPDERTISLCCWDSRTAERRNLLSLGHNNIVRCIVHSPTNPGFMTCSDDFRARFWYRRSTTD
On to B4, for which the binding result is given as “binds”.
